Values quoted from earlier work, collected in paper PMC4407688 (Drug metabolism and drug interactions, 2014).

Conditions: coadministration together with CsA; ref [16], [34], [35]; cited from earlier work

## CC(C)c1c(C(=O)Nc2ccccc2)c(-c2ccccc2)c(-c2ccc(F)cc2)n1CC[C@@H](O)C[C@@H](O)CC(=O)O [atorvastatin]
  Increased AUC of statin: 8.69 fold
